Reference: US4183939A, “Glaucine analgesic method” (priority 1978, dated 1980)
Structures can show the parent of a compound that is named as a salt.

Assay: palatability of 0.2 percent solutions of d,l-glaucine salts (taste)
Details: 0.2 percent (weight by volume) in distilled water, a few drops to the tongue

Compound	palatability (taste)	also measured
COc1cc2c(cc1OC)-c1c(OC)c(OC)cc3c1C(C2)N(C)CC3 (racemic) [d,l-glaucine lactate]	lack the sharp, metallic flavor and to be unobjectionable	–
COc1cc2c(cc1OC)-c1c(OC)c(OC)cc3c1C(C2)N(C)CC3 (racemic) [d,l-glaucine phosphate]	–	palatability (taste) (listed as d,l-Glaucine phosphate (2:3)): lack the sharp, metallic flavor and to be unobjectionable
COc1cc2c(cc1OC)-c1c(OC)c(OC)cc3c1C(C2)N(C)CC3 (racemic) [hydrobromide, d,l-glaucine hydrobromide]	–	palatability (taste) (hydrobromide): objectionable with a bitter, sharp and metallic initial taste which increased with time
COc1cc2c(cc1OC)-c1c(OC)c(OC)cc3c1C(C2)N(C)CC3 (racemic) [salicylate, d,l-glaucine salicylate]	more objectionable than the hydrobromide	–
COc1cc2c(cc1OC)-c1c(OC)c(OC)cc3c1C(C2)N(C)CC3 (racemic) [succinate]	more objectionable than the hydrobromide	–
